Laboratory results: PubChem BioAssay AID1053208 (Peter MacCallum Cancer Centre, 2014)
The whole screen tested about 17,000 reagents; shown is a random part of them. Of all reagents, 788 (4.7%) were called active. 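Calls rest on z-score classes alone; an extra cut-off of viability at most 70% of control was not applied to them.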 Unmarked entries are inactive.

Screen: 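Genes whose silencing cuts survival of bone tumour cells only with doxorubicin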 (primary screen)
Cells: mouse osteosarcoma cells, early-passage culture from an engineered mouse model of fibroblastic bone tumour
Reagents: siRNA pool against mouse genes, 40 nM
Duration: about 120 h (48 h before drug, then 72 h with drug)
Treatment: doxorubicin 100 nM for 72 h, roughly 30-40% inhibitory dose
Detection: 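Viability read as ATP luminescence after 72 h of 100 nM doxorubicin or none, duplicate wells averaged, scaled to non-targeting siRNA, then expressed as robust z-scores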
Direction: viability z-score with doxorubicin and doxorubicin viability vs non-targeting: higher = more viable cells under doxorubicin; viability z-score without drug: higher = more viable cells with knock-down alone; z-score of drug to no-drug ratio: higher = less drug sensitisation by knock-down
Rule for the call: 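Called active if knock-down leaves viability unchanged without drug (z within -2 to 2) but lowers it with doxorubicin (z at or under -2)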

Gene	combined z-score class	viability z-score with doxorubicin	viability z-score without drug	z-score of drug to no-drug ratio	doxorubicin viability vs non-targeting
Prss1	no change with or without drug	-0.22	1.69	-1.12	0.92
Ifnar2	no change with or without drug	0.79	0	0.9	1.01
Tnni3k	no change with or without drug	0.22	0.84	-0.22	0.96
Timm9	no change with or without drug	1.57	0.51	1.35	1.08
Mc3r	no change with or without drug	0.22	0.84	-0.22	0.96
Doc2g	no change with or without drug	0.22	0.51	0	0.96
Fcrl2	low cell count with doxorubicin only (active)	-2.36	-1.35	-1.57	0.73
Cyp2d10	no change with or without drug	-0.22	0.34	-0.34	0.92
Aqr	low cell count with and without drug	-4.95	-2.7	-3.93	0.5
Dazl	no change with or without drug	0.67	1.52	-0.22	1
Nmb	no change with or without drug	-0.67	0.17	-0.67	0.88
Wdfy3	no change with or without drug	1.12	0.84	0.67	1.04
Slc52a3	no change with or without drug	-1.12	0	-1.12	0.84
Lin7c	no change with or without drug	-1.46	-0.84	-0.9	0.81
Abhd14b	no change with or without drug	-0.67	0.51	-0.9	0.88
Def8	no change with or without drug	-0.9	0.51	-1.12	0.86
Xylt1	no change with or without drug	0.9	0.67	0.56	1.02
Ovgp1	no change with or without drug	-0.22	0.51	-0.45	0.92
Prb1a	no change with or without drug	1.01	0.84	0.56	1.03
Itfg2	no change with or without drug	0.45	-0.17	0.67	0.98

Laid out differently: entries from further up
Lin7c
- combined z-score class: no change with or without drug
- viability z-score with doxorubicin: -1.46
- viability z-score without drug: -0.84
- z-score of drug to no-drug ratio: -0.9
- doxorubicin viability vs non-targeting: 0.81

Abhd14b
- combined z-score class: no change with or without drug
- viability z-score with doxorubicin: -0.67
- viability z-score without drug: 0.51
- z-score of drug to no-drug ratio: -0.9
- doxorubicin viability vs non-targeting: 0.88
